This series deals with Adult mongrel dogs, left anterior descending coronary artery (LAD) occlusion/reperfusion. Put plainly: Infarct size in the dog, 60 min LAD occlusion and 3 h reperfusion. It counts as in vivo. The following applies: mean ± SEM. As for the experimental part: Adult mongrel dogs of either sex, weighing 19.0-30.0 kg were fasted overnight, anaesthetized with intravenous sodium barbital (200 mg/kg) and sodium pentobarbital (15 mg/kg), and ventilated with room air supplemented with 100% oxygen at an end expiratory pressure of 5-7 cm H2O to prevent atelectasis. Arterial blood pH PO2 and PCO2 were monitored at selected intervals by an automatic blood gas system and maintained within a normal physiological range (pH 7.35-7.45, PO2 10.6-16.0 kPa, PCO2 3,3-4.7 kPa) by adjusting the respiratory rate and oxygen flow and by an infusion of 1.5% sodium bicarbonate when necessary. Body temperature was maintained at 38±1° C. by using a heating pad.
A double pressure-transducer-tipped catheter was inserted into the aorta and left ventricle via the left carotid artery for measurements of aortic and left ventricular pressure. Left ventricular dP/dt was determined by electronic differentiation of the left ventricular pressure pulse.
A left thoracotomy was performed at the fifth intercostal space. The lung was retracted, the pericardium incised, and the heart suspended in a cradle. A 10-15 mm segment of the left anterior descending coronary artery (LAD) was dissected from surrounding tissue. A calibrated electromagnetic flow probe was placed around the LAD to determine coronary blood flow. The left atrial appendage was cannulated for radioactive microsphere injections to determine regional myocardial blood flow to the ischemic and normal areas during reperfusion. Electrodes were attached to the left atrial appendage to pace the heart at 150 beats/min with an electronic stimulator (Grass SD9) when the heart rate dropped below 140 beats/min.
Animals were randomly assigned to five groups; those receiving 35 μg/kg drug 24 h intravenously before occlusion (24 h), those receiving 35 μg/kg drug 24 h before occlusion and 30 mg/kg aminoguanidine subcutaneously 60 min before occlusion, those receiving 70 μg/kg drug 10 min before occlusion (10 min), those receiving 30 mg/kg aminoguanidine 60 min before occlusion and vehicle controls. Hemodynamic variables were monitored and recorded throughout the experiment. The phosphoglycolipid of the subject invention, L34, formulated in 40% propylene glycol and 10% ethanol (tEOH) in Water for Injection (WFI) was diluted one to one in 5% dextrose in water (D5W) and injected as an intravenous bolus 24 h or 10 min before the experiment. The control group was treated with an equivalent volume of vehicle (40% propylene glycol, 10% EtOH in WFI diluted in D5W). All dogs were subjected to a 60 min period of LAD occlusion followed by 3 h of reperfusion.
Regional myocardial blood flow was measured by the radioactive microsphere technique. […]

As to `N=C(N)NN` [AG, aminoguanidine, reference compound], for the setting “AG 30 mg/kg alone, 60 min before occlusion”, the “Transmural Collateral (Blood Flow)” value is 0.07 ± 0.02 mL/min/g.

`CCCCCCCCCCCCCCCCCC(=O)O[C@H](CCCCCCCCCCC)CC(=O)N[C@H]1[C@H](OC[C@H]2OC(O)[C@H](NC(=O)C[C@@H](CCCCCCCCCCC)OC(=O)CCCCCCCCCCCCCCC)[C@@H](O)[C@@H]2O)O[C@H](CO)[C@@H](OP(=O)(O)O)[C@@H]1OC(=O)C[C@@H](CCCCCCCCCCC)OC(=O)CCCCCCCCCCCCC` (stereo partly drawn) [L34, 2-Deoxy-6-O-[2-deoxy-4-O-phosphono-3-O-[(R)-3-tetradecanoyloxytetradecanoyl]-2-[(R)-3-octadecanoyloxytetradecanoylamino]-β-D-glucopyranosyl]-2-[(R)-3-hexadecanoyloxytetradecanoylamino]-D-glucopyranose]: the “Transmural Collateral (Blood Flow)” value was 0.06 ± 0.01 mL/min/g (L34 35 μg/kg 24 h before occlusion + AG 30 mg/kg s.c. 60 min before occlusion), 0.06 ± 0.01 mL/min/g (L34 35 μg/kg i.v. 24 h before occlusion) and 0.05 ± 0.01 mL/min/g (L34 70 μg/kg i.v. 10 min before occlusion).

The values above are taken from patent US6399590B2, “Phosphoglycolipid and methods for its use” (Corixa Corporation, priority 1998, dated 2002).
